Consider 1 molecule from US4774232A, “Bile-substituting method of treatment for the promotion of fat digestion” (Chinoin Gyogyszer Es Vegyeszeti Termak Ek Gyara Rt, priority 1985, dated 1988).

In this series the test system is normal rats. Nature of the series: 31-day oral DIMEB treatment of normal rats, plasma and liver triglycerides. As to conditions: 31 days; for Liver triglycerides / Plasma triglycerides: normal rats. The series is classed as in vivo.
Setting [1] is: oral daily dose 150 mg/kg of DIMEB.
The mark [2] stands for this setting: oral daily dose 300 mg/kg of DIMEB.

Turning to `COC[C@H]1O[C@@H]2O[C@H]3[C@H](O)[C@@H](OC)[C@@H](O[C@H]4[C@H](O)[C@@H](OC)[C@@H](O[C@H]5[C@H](O)[C@@H](OC)[C@@H](O[C@H]6[C@H](O)[C@@H](OC)[C@@H](O[C@H]7[C@H](O)[C@@H](OC)[C@@H](O[C@H]8[C@H](O)[C@@H](OC)[C@@H](O[C@H]1[C@H](O)[C@H]2OC)O[C@@H]8COC)O[C@@H]7COC)O[C@@H]6COC)O[C@@H]5COC)O[C@@H]4COC)O[C@@H]3COC` [DIMEB, heptakis(2,6-di-O-methyl)-β-cyclodextrin], under setting [1], the Liver triglycerides is reported as 3.6 ± 1.0 mg/100 ml and the Plasma triglycerides came out at 48.3 ± 4.5 mg/100 ml. Under setting [2], this molecule returned a Liver triglycerides of 3.8 ± 1.4 mg/100 ml and a Plasma triglycerides of 45.9 ± 3.1 mg/100 ml. Moreover, the “Influence on plasma and liver triglyceride content” value (rats on normal food, 150 mg/kg or 300 mg/kg daily oral) is “neither the plasma, nor the liver triglyceride content were influenced”.
